According to patent US20090117563A1, “Identification of TRPML3 (MCOLN3) as a Salty Taste Receptor and Use in Assays for Identifying Taste (Salty) Modulators and/or Therapeutics that Modulate Sodium Transport, Absorption or Excretion and/or Aldosterone and/or Vasopressin Production or Release” (priority 2007, published 2009):
At least one compound was matched to its structure with a doubt left.

Molecular target: T1, human TRPML3 (Homo sapiens, UniProt Q8TDD5)
T1 construct: expressed in transfected cells
T1 sequence (Q8TDD5 1-553): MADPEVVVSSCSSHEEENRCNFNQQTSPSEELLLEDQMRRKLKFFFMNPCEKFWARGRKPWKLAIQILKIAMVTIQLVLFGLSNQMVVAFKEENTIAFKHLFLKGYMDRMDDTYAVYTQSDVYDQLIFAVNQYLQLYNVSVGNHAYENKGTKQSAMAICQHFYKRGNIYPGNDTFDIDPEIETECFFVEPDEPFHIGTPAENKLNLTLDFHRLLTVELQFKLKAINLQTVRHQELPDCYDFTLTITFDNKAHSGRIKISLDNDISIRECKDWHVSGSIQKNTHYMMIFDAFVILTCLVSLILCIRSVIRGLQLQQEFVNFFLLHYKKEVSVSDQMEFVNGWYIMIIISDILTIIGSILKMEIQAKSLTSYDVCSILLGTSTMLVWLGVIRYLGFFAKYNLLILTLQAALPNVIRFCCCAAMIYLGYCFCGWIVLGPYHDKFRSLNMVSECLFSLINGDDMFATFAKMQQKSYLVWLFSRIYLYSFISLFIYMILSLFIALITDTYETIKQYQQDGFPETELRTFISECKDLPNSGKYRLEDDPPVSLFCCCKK
Test: Whole cell patch clamp electrophysiology of cells expressing human TRPML3
Format: cell-based
Conditions: no concentration given
Excerpt: The whole cell voltage clamp technique is an electrophysiology method that measures the macroscopic electrical current flowing across the entire plasma membrane though protein channels. Live mammalian cells are placed in a special microscope chamber containing extracellular solution. Guided by a micromanipulator and under visual control, a small diameter glass pipette filled with an electrically conductive salt solution is first attached to the cell membrane using gentle negative pressure resulting in a high resistance gigaOhm seal. The membrane patch within the pipette is disrupted using further suction resulting in the whole cell patch clamp configuration. The whole cell patch clamp configuration allows the combined measurement of all ion channels proteins within the membrane or macroscopic current. Using the patch clamp amplifier in combination with the whole-cell patch clamp configuration allows the operator to control the voltage, or potential difference across the entire cell membrane, as well as the both the internal and external ionic composition of the cell. […]

Q: With `NC(=NCc1ccccc1)NC(=O)c1nc(Cl)c(N)nc1N` [benzamil] as the compound, how does the “block of TRPML3” value read?
A: not blocked
